Measurements reported in the supplement of paper PMC3334620.
In all, about 33,000 sequences were measured (“E-score (-0.5 to 0.5)”: median about -0.0059, highest 2% from about 0.26 on). The list shows a part of the results.

Molecular target: T1, Cin5 (UniProt P40917)
T1 sequence: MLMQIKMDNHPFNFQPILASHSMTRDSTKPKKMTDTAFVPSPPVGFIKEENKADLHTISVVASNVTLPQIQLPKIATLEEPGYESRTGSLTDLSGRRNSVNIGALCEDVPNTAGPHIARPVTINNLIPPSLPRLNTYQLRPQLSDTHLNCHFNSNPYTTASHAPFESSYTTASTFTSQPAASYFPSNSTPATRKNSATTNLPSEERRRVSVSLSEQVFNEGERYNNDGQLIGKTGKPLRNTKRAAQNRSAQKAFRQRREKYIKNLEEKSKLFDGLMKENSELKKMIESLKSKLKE
Test: PBM E-score (8-mer binding enrichment) (E-score (-0.5 to 0.5)); higher = stronger / more preferred TF binding
Details: protein concentration: 100 nM; construct: GST-full length
Procedure: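 Universal 'all 10-mer' protein binding microarrays (Agilent AMADID 015681) probed with GST-tagged S. cerevisiae TFs (full-length or DBD) made by in vitro transcription/translation (PURExpress), about 100-200 nM. Bound TF was detected with fluorescent anti-GST. Each ungapped 8-mer (which stands for itself and its reverse complement) is scored by the PBM enrichment score (E-score), a modified Wilcoxon-Mann-Whitney statistic from -0.5 to +0.5, computed with the Universal PBM Analysis Suite. Scale: above 0.35 generally sequence-specific binding.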

| Sequence | PBM E-score |
| --- | --- |
| GGTGCCAC | -0.227 |
| TAATGATA | 0.298 |
| AAAATGAT | 0.256 |
| ACGCTCTA | -0.159 |
| CTTTCCCA | -0.115 |
| CGCTGCGA | 0.0622 |
| AGCGTAAC | 0.145 |
| GACGAGTC | -0.158 |
| CCGTTACG | 0.0353 |
| AAAGTTGG | 0.114 |
| ACGCCGAT | -0.0769 |
| GAGCGTAA | 0.202 |
| AGCCAACT | -0.0647 |
| AACTGATT | 0.124 |
| GGAAGACC | -0.236 |
| GCAAAGGC | -0.21 |
| CACATAAG | 0.109 |
| AGTATACT | -0.068 |
| CACCGGGA | -0.0974 |
| ATTAGAAA | -0.0685 |
| CATTTAGC | -0.00673 |
| GTAGAAGA | -0.121 |
| AATACGAA | 0.149 |
| CCGCCCTA | -0.304 |
| AACAGCTA | 0.0505 |

| Sequence | PBM E-score |
| --- | --- |
| GAAGAGAC | -0.0477 |
| CACAACCC | 0.0423 |
| CCATATAA | 0.0704 |
| AGCGTGCG | 0.032 |
| TAGGGACA | 0.0691 |
| AAGAAGGG | -0.129 |
| GGAAGAAA | -0.0196 |
| GCCAGGAC | -0.0814 |
| AAAATATA | 0.159 |
| AGTTTGGA | 0.103 |
| ATGCAAGG | -0.187 |
| CCCTTTGA | -0.184 |
| GCCGCACA | -0.0858 |
| ATATAACC | 0.188 |
| GCAGCCCA | -0.16 |
| AAACCTAG | -0.0706 |
| CTATAAAG | 0.113 |
| GATTTGCC | 0.067 |
| AATCAGGT | 0.148 |
| TCAACTCA | 0.107 |
| GAGCCAAA | -0.0438 |
| AATCTCCC | -0.0945 |
| AAGTTCAA | 0.184 |
| AGCTACCA | -0.00498 |
| CTGTGGCC | -0.265 |

| Sequence | PBM E-score |
| --- | --- |
| AGCTGTTC | -0.0725 |
| CAATTAAG | 0.0584 |
| AAACAGGT | -0.0623 |
| GACCGTGA | -0.189 |
| AAAGCAAA | 0.104 |
| CACCCATC | 0.0315 |
| CTTTGGGC | -0.0244 |
| CAACGCTA | -0.0242 |
| CGCAACCA | 0.131 |
| ACGAATGG | 0.113 |
| AATGCGCT | 0.0643 |
| CATTGCAG | -0.0108 |
| CGACGGTA | 0.0903 |
| GATTTCTA | 0.138 |
| AGTTGACC | 0.00402 |
| CCAGAGAC | -0.0858 |
| CCCAGCAA | 0.0592 |
| GCTAACCC | -0.117 |
| ATAGCTAG | -0.0369 |
| CGAGAGGA | 0.00075 |
| GTCAAGGA | -0.0985 |
| AAACCTAA | 0.17 |
| GAAGAACA | 0.215 |
| ACAGGAAG | -0.102 |
| AACGAATT | 0.137 |

| Sequence | PBM E-score |
| --- | --- |
| GAAGATTA | 0.197 |
| TCATCACA | 0.00441 |
| CCAACAAA | 0.024 |
| ACACAGCT | -0.0388 |
| TAGGTGCA | -0.0576 |
| GTCGATAA | -0.00627 |
| AGATGGAC | 0.0596 |
| AAAGAAGT | 0.03 |
| ACTGAGCA | 0.0202 |
| ATGGGGGA | -0.317 |
| CAACTTGA | 0.201 |
| GACTCATC | -0.121 |
| CAGGTGCC | -0.228 |
| ACGCACGG | -0.0803 |
| ATTCGGTA | 0.0271 |
| AGCCAAAG | -0.225 |
| CCGTGTGA | -0.153 |
| CGTGCAGA | -0.0801 |
| TCTCGGAA | 0.073 |
| CATTCGAG | 0.00359 |
| AATTAAGG | -0.0926 |
| AAATGTGC | 0.16 |
| TGCGACCA | 0.114 |
| GGCTCCGA | -0.0818 |
| CAGGGAAC | 0.0123 |

| Sequence | PBM E-score |
| --- | --- |
| AAGAACCA | -0.0713 |
| AATACGCT | 0.155 |
| AATTCAGT | 0.0428 |
| CAGATGGC | -0.172 |
| CATATGGC | 0.058 |
| ACATGAAA | 0.0637 |
| GTTGGTGA | 0.137 |
| ATTTGAGG | -0.117 |
| GGTCACTA | -0.071 |
| AATTACAT | 0.322 |
| CGGGACAA | -0.129 |
| ACTAATAT | 0.234 |
| AACGCAAC | 0.144 |
| ATCGGTCG | -0.0812 |
| GGTCTACA | -0.116 |
| AAAGCTCG | -0.00313 |
| GTAAATGA | 0.164 |
| GGCACCAA | 0.0857 |
| ATTCGGAC | 0.149 |
| GATGTAGA | 0.0633 |
| AAAGTGCA | 0.054 |
| ACCCATAC | 0.162 |
| ACTGCCCT | -0.0972 |
| AAAAAGGC | 0.0174 |
| CAAACGGA | 0.0359 |

As entered above:
PBM E-score with ACTGAGCA is entered as 0.0202
PBM E-score with AATCTCCC is entered as -0.0945
PBM E-score with CCAGAGAC is entered as -0.0858
PBM E-score with CAACTTGA is entered as 0.201

Remaining list, next part

| Sequence | PBM E-score |
| --- | --- |
| ACACTGCG | -0.0729 |
| CTACCTCC | -0.0402 |
| AAGGAGGG | -0.0409 |
| AGACACGC | -0.158 |
| AATGGTAT | 0.182 |
| GAGACGCC | -0.072 |
| GTAACTCA | -0.158 |
| TCCAGACA | -0.146 |
| GACTTGTA | -0.119 |
| AGCCCAGG | -0.291 |
| CCTCCTCA | -0.266 |
| AACTGAGT | 0.0446 |
| ACAGCTGT | 0.028 |
| TAGCTACA | 0.168 |
| TAGCGAAA | 0.104 |
| TCGGCCGA | 0.0246 |
| ATCAAAGC | 0.0273 |
| ATGTGATG | -0.0963 |
| TCACCGGA | 0.0333 |
| GGAGAAAC | -0.0254 |
| CAAGAGAC | -0.183 |
| ATCGCTGA | 0.143 |
| CGCGGCGC | 0.0563 |
| ACATAGAT | 0.0439 |
| CCCCTTTC | -0.326 |

| Sequence | PBM E-score |
| --- | --- |
| CCCCACAC | -0.125 |
| TTCAGCAA | 0.103 |
| ACAACCGC | 0.188 |
| TATCGGCA | -0.045 |
| CCCCAATC | 0.0551 |
| ACTCGGAA | 0.175 |
| CGGGAGTA | 0.0223 |
| GCAACAGC | -0.107 |
| ACCGCTCA | 0.0166 |
| GGGCCCAC | -0.128 |
| ATTTCGAC | -0.0159 |
| CGTCGCTC | -0.13 |
| AATTTGAT | 0.0581 |
| AAGAGCGA | -0.161 |
| GCAATCCA | 0.0472 |
| GAAACTCA | -0.0199 |
| GTCATGAC | 0.063 |
| ACCAAATG | 0.0735 |
| ACCCTAGT | -0.122 |
| CGAAACAA | 0.157 |
| GGGGTGCA | -0.0123 |
| CGACTGCG | -0.0963 |

Another view of some results above:
Sequence	PBM E-score
GATGTAGA	0.0633
AAAGTGCA	0.054
ACCCATAC	0.162
ACTGCCCT	-0.0972
AAAAAGGC	0.0174
ACACTGCG	-0.0729
CTACCTCC	-0.0402
AAGGAGGG	-0.0409
AGACACGC	-0.158
AATGGTAT	0.182
GAGACGCC	-0.072
GTAACTCA	-0.158
TCCAGACA	-0.146
GACTTGTA	-0.119
AGCCCAGG	-0.291
CCTCCTCA	-0.266
AACTGAGT	0.0446
ACAGCTGT	0.028
TAGCTACA	0.168
TAGCGAAA	0.104
TCGGCCGA	0.0246
ATCAAAGC	0.0273
ATGTGATG	-0.0963
TCACCGGA	0.0333
GGAGAAAC	-0.0254
ATCGCTGA	0.143
CGCGGCGC	0.0563
ACATAGAT	0.0439
CCCCTTTC	-0.326
CCCCACAC	-0.125
TTCAGCAA	0.103
TATCGGCA	-0.045
CCCCAATC	0.0551
ACTCGGAA	0.175
CGGGAGTA	0.0223
GCAACAGC	-0.107
ACCGCTCA	0.0166
GGGCCCAC	-0.128
ATTTCGAC	-0.0159
CGTCGCTC	-0.13
AATTTGAT	0.0581
AAGAGCGA	-0.161
GCAATCCA	0.0472
GAAACTCA	-0.0199
GTCATGAC	0.063
ACCAAATG	0.0735
ACCCTAGT	-0.122
CGAAACAA	0.157
GGGGTGCA	-0.0123
CGACTGCG	-0.0963
